Mtb heat-shock: 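Assay on Mycobacterium tuberculosis, filed only as a heat shock assay from Cornell; the read-out is not stated. The concentration is filed as 10 mM, unlikely as a test dose, so the dose is not known. Direction is inferred from retests: higher values go with stronger inhibition. About 69,000 compounds were tested under these conditions; 1.4% (about 930) showed 50% or more at least once.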
Mtb growth Cornell: 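Whole-cell assay for inhibitors of Mycobacterium tuberculosis growth, labelled Cornell in the record; the read-out is not stated. The concentration is filed as 10 mM, unlikely as a test dose, so the dose is not known. Higher means stronger inhibition (inferred from two other growth screens of the library). About 53,000 compounds were tested under these conditions; 1.7% (about 900) showed 50% or more at least once.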
LdMetRS: 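Methionyl-tRNA synthetase (putative), Leishmania donovani (UniProt E9BF75). Primary screen of methionyl-tRNA synthetase; the read-out is not stated. The test concentration is not given. The values are filed as inhibition. Size under these conditions: about 68,000 compounds, about 24 of them at 50% or above in at least one test.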

Protein sequences, listed by entry. Tags and fused reporters are not part of them.
UniProt E9BF75, entry or part of it: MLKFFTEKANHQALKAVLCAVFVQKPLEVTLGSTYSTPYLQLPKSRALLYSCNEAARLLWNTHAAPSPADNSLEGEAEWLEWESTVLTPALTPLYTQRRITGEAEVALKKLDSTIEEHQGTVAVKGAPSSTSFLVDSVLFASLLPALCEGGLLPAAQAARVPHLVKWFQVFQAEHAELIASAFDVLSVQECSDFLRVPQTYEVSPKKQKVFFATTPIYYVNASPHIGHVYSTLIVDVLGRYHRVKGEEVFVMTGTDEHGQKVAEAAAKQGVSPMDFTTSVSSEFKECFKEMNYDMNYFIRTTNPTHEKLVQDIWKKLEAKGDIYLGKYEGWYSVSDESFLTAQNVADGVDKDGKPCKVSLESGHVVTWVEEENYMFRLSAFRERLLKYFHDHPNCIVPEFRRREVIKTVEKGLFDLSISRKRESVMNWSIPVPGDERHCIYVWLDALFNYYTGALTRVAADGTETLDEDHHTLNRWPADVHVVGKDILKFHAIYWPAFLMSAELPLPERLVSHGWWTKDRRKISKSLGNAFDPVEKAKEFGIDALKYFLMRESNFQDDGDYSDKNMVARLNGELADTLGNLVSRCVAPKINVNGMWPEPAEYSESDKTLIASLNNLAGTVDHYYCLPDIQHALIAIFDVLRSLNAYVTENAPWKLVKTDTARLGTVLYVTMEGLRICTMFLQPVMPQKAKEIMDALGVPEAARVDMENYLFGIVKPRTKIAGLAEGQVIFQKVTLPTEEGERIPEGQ

Results are percentages, as filed. The record does not define 0% and 100%; most values in the screen are far below 50% and negative numbers occur (in some assays of this library far below -100). The compounds are a random part of those screened.

CN(CCc1cnn(C)c1)C(=O)Cn1c(=O)[nH]c2ccccc21 gave Mtb heat-shock: 16.24%; Mtb growth Cornell: 8.481%; LdMetRS: 14.65%.
CC(C)N(CC(=O)O)Cc1cccc(Br)c1 gave LdMetRS: 24.73%.
Cl.NC(CC1CCCCC1)c1ccccc1 (stereo unspecified) gave Mtb heat-shock: 1.9%; Mtb growth Cornell: 52.12%.
O=C(c1ccc2c(c1)OCO2)N1CCCSCC1CN1CCCC1 (stereo unspecified) gave Mtb heat-shock: 25.81%; Mtb growth Cornell: 26.76%; LdMetRS: 23.53%.
O=C(C1CN(c2ncc(F)cn2)CC12CCOCC2)N1CC=CC1 (stereo unspecified) gave LdMetRS: 12.2%.
COCCOc1ccccc1C(=O)N1CCCCC1c1nccs1 (stereo unspecified) gave Mtb heat-shock: -12.18%; Mtb growth Cornell: -0.906%; LdMetRS: 10.46%.
Cn1ccnc1CN1CCCC(Cc2ccnc3ccncc23)CC1 (stereo unspecified) gave LdMetRS: 18.64%.
Cc1noc(C)c1CC(=O)NCC(CC(C)C)N1CCOCC1 (stereo unspecified) gave Mtb heat-shock: -5.95%; Mtb growth Cornell: 32.24%; LdMetRS: 17.08%.
Cc1ccnc(C2CN(Cc3cnn(-c4ccccc4C(=O)O)c3)C2)n1 gave Mtb heat-shock: -2.802%; Mtb growth Cornell: 14.82%; LdMetRS: 12.46%.
COc1ncc(C(=O)N(Cc2cnn(C)c2)C(C)C)cn1 gave Mtb heat-shock: 13.33%; Mtb growth Cornell: 0.07868%; LdMetRS: 13.8%.
Cc1noc(C)c1CN1CCC2(CC1)CC(Oc1cccnc1)C2.O=C(O)C(F)(F)F.O=C(O)C(F)(F)F gave Mtb heat-shock: -42.82%; Mtb growth Cornell: 22.63%.
[H][C@]12CCCCN1CCC[C@H]2CCC(=O)NCCc1cc(O)nc(C)n1 gave Mtb heat-shock: 12.86%.
Cc1occc1C(=O)N1CCCC2(CCN(CCN3CCCC3)C2=O)C1 (stereo unspecified) gave LdMetRS: -7.087%.
CN(C)[C@@H]1CN(Cc2ccccc2O)C[C@H]1c1cn(C)c2ccccc12.Cl gave Mtb heat-shock: 12.04%; Mtb growth Cornell: 107.3%.
CCn1nnc2c1C(COC)CN(Cc1cccs1)C2 (stereo unspecified) gave LdMetRS: 14.29%.
CN1[C@H](Cn2cncn2)C[C@@H]2CN(C3CCOCC3)CC[C@@H]21 gave LdMetRS: -10.28%.
CCc1nc2n(n1)CC(NCc1cnc(-c3ccccc3)nc1)CC2 (stereo unspecified) gave Mtb heat-shock: -33.51%; Mtb growth Cornell: -15.44%; LdMetRS: 2.514%.
COc1nsc2nc(C3CCCN3c3ncccn3)ccc12 (stereo unspecified) gave Mtb heat-shock: 0.2309%; Mtb growth Cornell: 56.9%; LdMetRS: 11.05%.
CC(C)c1cncnc1N1CC[C@H](N2CCOCC2)[C@H](CCCO)C1 gave Mtb heat-shock: -40.07%; Mtb growth Cornell: 11.51%; LdMetRS: 10.08%.
[H][C@@]12CC(=O)N(c3cnn(C)c3)[C@@]1([H])CCN2C(=O)c1ccco1 gave Mtb heat-shock: -12.09%; Mtb growth Cornell: -0.5377%.
O=C(CN1CCNCC1)N1CC[C@@H](c2ccc3ccccc3c2)[C@H](O)C1 gave Mtb heat-shock: -20.22%; Mtb growth Cornell: 8.329%; LdMetRS: 13.66%.
CS(=O)(=O)NC[C@]12COC[C@H]1CN(C(=O)C1CCSCC1)C2 gave LdMetRS: 10.34%.
Cc1cnn(CCNCc2nc(Cc3ccccc3)no2)c1 gave Mtb heat-shock: -19.24%; LdMetRS: 17.35%.
[H][C@@]12CN(CC(=O)N(C)C)C[C@]1([H])OCCN2c1ncc(F)cn1 gave Mtb heat-shock: -3.377%.
COc1cc(C)ccc1OCC(=O)NS(=O)(=O)c1cc(F)ccc1F gave Mtb heat-shock: -34.63%; Mtb growth Cornell: 22.07%; LdMetRS: 2.717%.
O=C(NC1CC1)c1cc2c(nc1O)CC(c1cccs1)CC2=O (stereo unspecified) gave Mtb heat-shock: 9.137%; Mtb growth Cornell: -60.77%; LdMetRS: 7.013%.
CCCOCCn1ncc(N2CCCC2)cc1=O gave Mtb heat-shock: 20.5%; Mtb growth Cornell: 28.17%; LdMetRS: 11.54%.
COc1ccc(-c2ccnc3nc(N4CCCC4)[nH]c(=O)c23)cc1OC gave Mtb heat-shock: -17.78%; LdMetRS: 7.429%.
Cc1cccc(CN2CCC3(CC2)CC(Oc2cccnc2)C3)n1.O=C(O)C(F)(F)F.O=C(O)C(F)(F)F gave Mtb heat-shock: -21.23%; Mtb growth Cornell: 34.84%.
OC(CN1CCC(c2ccn[nH]2)CC1)c1cccc(C(F)(F)F)c1 (stereo unspecified) gave Mtb heat-shock: -3.388%; Mtb growth Cornell: 32.14%; LdMetRS: 21.11%.
CN1CCC(CCc2ccnc(NC(=O)c3ccccn3)c2)CC1 gave Mtb heat-shock: 7.304%; Mtb growth Cornell: -27.02%; LdMetRS: 5.28%.
CC(C)(C)CN(CCC#N)C(=O)c1cccc(CC#N)c1 gave Mtb heat-shock: -3.13%; LdMetRS: 11.48%.
COc1ccc(CC(=O)NC2(C#N)CCOCC2)c(Cl)c1 gave Mtb heat-shock: 5.803%; LdMetRS: 14.92%.
O=C1[C@H]2CC[C@H](CN(c3ncnc4ccsc34)C2)N1CC1CC1 gave LdMetRS: 19.16%.
COc1ccc(OCc2nc(C(=O)N3CC(O)C3)co2)cc1 gave Mtb heat-shock: 3.263%; LdMetRS: 14.13%.
Cc1c(F)cccc1S(=O)(=O)NCCN gave LdMetRS: 5.85%.
Cc1cc(O)n2nc(C3CCN(C(=O)c4ccccn4)CC3)cc2n1 gave Mtb heat-shock: -14.39%; Mtb growth Cornell: -20.22%; LdMetRS: 1.744%.
O=C(c1cnccn1)N1CCO[C@H]2[C@H](OCc3cccnc3)CC[C@@H]21 gave LdMetRS: 9.63%.
Cc1nn(C)c(C)c1-c1cc(-c2cnn(C)c2C2CC2)c(C#N)c(N)n1 gave Mtb heat-shock: 3.687%; Mtb growth Cornell: 3.406%; LdMetRS: 20%.

Repeated from the top, 3 entries:

{"smiles": "CN(CCc1cnn(C)c1)C(=O)Cn1c(=O)[nH]c2ccccc21", "Mtb heat-shock": 16.24, "Mtb growth Cornell": 8.481, "LdMetRS": 14.65}
{"smiles": "CC(C)N(CC(=O)O)Cc1cccc(Br)c1", "LdMetRS": 24.73}
{"smiles": "Cl.NC(CC1CCCCC1)c1ccccc1", "stereo": "stereo unspecified", "Mtb heat-shock": 1.9, "Mtb growth Cornell": 52.12}

Data taken from ChEMBL document CHEMBL3988442, “University of Dundee, Small-Polar-MMV Screening Library” (2021).